Measured values published in patent US6335013B1, “Methods and materials relating to CD39-like polypeptides” (Hyseq, Inc., priority 1999, dated 2002).
Results are given in words; binding and its absence hold for the method and conditions named. Some results given as binding are weak or reduced against the parent protein; the word gives no strength. Where a sequence is shown, tags or fusion partners need not be part of it.

Amino acid sequences for entries named in this document (tags omitted). A change or cut given only in a name is not applied to a line headed by its entry.
UniProt O75356: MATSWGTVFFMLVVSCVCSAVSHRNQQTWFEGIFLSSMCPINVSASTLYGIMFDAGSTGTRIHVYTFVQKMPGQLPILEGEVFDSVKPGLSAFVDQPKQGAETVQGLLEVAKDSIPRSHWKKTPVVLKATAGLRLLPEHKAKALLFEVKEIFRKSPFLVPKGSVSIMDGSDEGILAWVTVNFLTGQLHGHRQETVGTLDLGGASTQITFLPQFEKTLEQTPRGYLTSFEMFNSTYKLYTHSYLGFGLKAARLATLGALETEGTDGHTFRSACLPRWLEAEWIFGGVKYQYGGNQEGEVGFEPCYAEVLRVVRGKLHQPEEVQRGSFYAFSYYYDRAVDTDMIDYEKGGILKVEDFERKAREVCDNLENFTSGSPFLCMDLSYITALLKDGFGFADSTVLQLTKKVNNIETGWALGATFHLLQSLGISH

Columns and labels:
CD39-L4-6His (human) [1] = target: CD39-L4-6His (human) (UniProt O75356); assay: sucrose density gradient ultracentrifugation and Western blot; self-association
CD39-L4-6His (human) [2] = target: CD39-L4-6His (human) (UniProt O75356); assay: nonreducing versus reducing SDS-PAGE, Western blot; self-association
CD39-L4-6His (human) [3] = target: CD39-L4-6His (human) (UniProt O75356); assay: non-reducing SDS-PAGE, Western blot; self-association
CD39-L4-6His (human) [4] = target: CD39-L4-6His (human) (UniProt O75356); assay: non-reducing SDS-PAGE, Western blot; self-association; band lost on reduction
CD39-L4-6His (human) [5] = target: CD39-L4-6His (human) (UniProt O75356); assay: recap of Example 6D; self-association

Measured: binding

B1: CD39-L4-6His (protein)
chain: HRGSHHHHHHNQQTWFEGIFLSSMCPINVSASTLYGIMFDAGSTGTRIHVYTFVQKMPGQLPILEGEVFDSVKPGLSAFVDQPKQGAETVQGLLEVAKDSIPRSHWKKTPVVLKATAGLRLLPEHKAKALLFEVKEIFRKSPFLVPKGSVSIMDGSDEGILAWVTVNFLTGQLHGHRQETVGTLDLGGASTQITFLPQFEKTLEQTPRGYLTSFEMFNSTYKLYTHSYLGFGLKAARLATLGALETEGTDGHTFRSACLPRWLEAEWIFGGVKYQYGGNQEGEVGFEPCYAEVLRVVRGKLHQPEEVQRGSFYAFSYYYDRAVDTDMIDYEKGGILKVEDFERKAREVCDNLENFTSGSPFLCMDLSYITALLKDGFGFADSTVLQLTKKVNNIETGWALGATFHLLQSLGISH
binds: all assays above
